Measured data: PubChem BioAssay AID504784 (Drosophila RNAi Screening Center, 2011)
Purpose: 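Genome-wide knock-down for genes giving too much or too little stored lipid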 (primary screen). System: Drosophila Kc167 embryonic cells. Reagent: long dsRNA against Drosophila genes, about 250 ng dsRNA per well. Time to read-out: 4 days. Challenge: cells fed 400 µM oleic acid bound to BSA. Measurement: 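Microscope images give a droplet-to-nucleus area ratio, taken as log and converted to a screen-wide B-score; higher values mean greater lipid storage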. Reading the numbers: droplet/nuclear area B-score: higher = more stored lipid (overstorage).
In all, the deposit lists about 17,000 reagents; below is an unselected part of those with a known target gene and a result. 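Each column is one replicate's B-score; the combined score over replicates was not deposited, so single values may mislead.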 Reagents against one gene are numbered here. Names joined by + are all predicted targets of the reagent. Further read-outs or replicates are left out here. Reagent sequences are not shown.

| gene | reagent | droplet/nuclear area B-score, replicate 1 | droplet/nuclear area B-score, replicate 2 |
| --- | --- | --- | --- |
| CG13361 | 1 | -0.386 | -0.0016 |
| CG11997 | 1 | -0.462 | 0.24 |
| Gk2 | 1 | -0.0592 | 0.951 |
| CG9877 | 1 | 1.88 | 0.0609 |
| CG2065 | 1 | -2.32 | 0.478 |
| CG2065 | 2 | 0.482 | 0.0218 |
| Gld2 | 1 | 2.23 | -1.14 |
| Gld2 | 2 | -1.29 | 0.775 |
| CG15219 | 1 | -0.417 | -1.17 |
| CG12321 | 1 | -0.157 | 0.908 |
| CG10616 | 1 | 0.508 | 3.01 |
| CARPB | 1 | -0.836 | -0.605 |
| CARPB | 2 | -0.0325 | 1.19 |
| H | 1 | 1.52 | -0.628 |
| CG15919 | 1 | 0.649 | 0.868 |
| Srp9 | 1 | 0.0482 | -0.144 |
| Task7 | 1 | -1.73 | 0.302 |
| CG30470 (retired record) | 1 | -3.88 | -4.47 |
| CG30470 (retired record) | 2 | 0.26 | -2.19 |
| CG30470 (retired record) | 3 | -2.58 | -0.034 |
| CG30470 (retired record) | 4 | 1.49 | 0.312 |
| CG30470 (retired record) | 5 | -3.89 | -3.13 |
| CG43867 | 1 | 0.337 | -0.887 |
| CG43867 | 2 | -3.25 | 2.49 |
| CG43867 | 3 | 1.66 | -0.723 |
| Rnf11 | 1 | -0.208 | -1.29 |
| Rab9Db + Rab9D + Rab9E | 1 | -1.59 | -2.11 |
| CG14341 | 1 | -1.6 | 0.0752 |
| CG8476 | 1 | 2.03 | 0.674 |
| Ctps | 1 | -3.63 | -0.214 |
| Ctps | 2 | 1.28 | -0.186 |
| Ctps | 3 | 1.36 | 1.69 |
| GNBP3 | 1 | 0.868 | 1.47 |

Already shown: 5 of the entries above.
| gene | reagent | droplet/nuclear area B-score, replicate 1 | droplet/nuclear area B-score, replicate 2 |
| --- | --- | --- | --- |
| Gld2 | 1 | 2.23 | -1.14 |
| Gld2 | 2 | -1.29 | 0.775 |
| CG15219 | 1 | -0.417 | -1.17 |
| CG12321 | 1 | -0.157 | 0.908 |
| CG10616 | 1 | 0.508 | 3.01 |

Next results follow:
| gene | reagent | droplet/nuclear area B-score, replicate 1 | droplet/nuclear area B-score, replicate 2 |
| --- | --- | --- | --- |
| CG14424 | 1 | 0.043 | -0.739 |
| CG10674 | 1 | -0.108 | – |
| CG17574 | 1 | -0.763 | -0.564 |
| djl | 1 | -1.96 | 1.69 |
| Gr98b | 1 | 0.00121 | -0.714 |
| CG6023 | 1 | 0.529 | -0.397 |
| gt | 1 | -0.048 | 1.07 |
| gt | 2 | 0.975 | 1.5 |
| Orc5 | 1 | 0.0373 | -0.642 |
| Spn27A | 1 | -2.27 | -0.11 |
| CG13585 | 1 | 0.287 | -2.07 |
| OtopLa | 1 | -0.672 | -0.674 |
| OtopLa | 2 | -1.13 | -3.25 |
| OtopLa | 3 | -0.363 | -0.213 |
| PolA1 | 1 | 2.28 | 3 |
| Dap160 | 1 | 0.285 | 0.133 |
| CG14892 | 1 | 1.76 | -0.19 |
| DIP-theta | 1 | 0.0724 | -1.07 |
| DIP-theta | 2 | 0.479 | 1.01 |
| DIP-theta | 3 | 1.28 | 0.553 |
| mRpS9 | 1 | 0.833 | 0.868 |
| mRpS9 | 2 | 2.98 | 2.05 |
| Ude | 1 | 0.0306 | 0.962 |
| Trxr2 | 1 | -0.23 | – |
| Pgant3 | 1 | 0.47 | 0.337 |
| kl-5 (retired record) | 1 | -1.01 | 1.81 |
| kl-5 (retired record) | 2 | 1.07 | -0.374 |
| kl-5 (retired record) | 3 | 0.34 | 1.93 |
| kl-5 (retired record) | 4 | 6.3 | 0.0192 |
| CG6614 | 1 | 0.558 | 0.702 |
| CheB98a | 1 | 0.58 | -1.71 |
| opm | 1 | 0.879 | 0.445 |
| opm | 2 | 7.23 | 4.35 |
| Polr1A | 1 | -1.55 | -0.633 |
| Or98b | 1 | 1.27 | 1.05 |
| Or98b | 2 | 1.22 | -0.0292 |
| Myo61F | 1 | -0.756 | -0.0994 |
| Gr58c | 1 | 0.5 | 2.44 |
| geminin | 1 | 3.95 | 4.61 |
| PQBP1 | 1 | 0.634 | 0.0479 |
| meigo | 1 | 0.804 | -0.00703 |
| PIG-H | 1 | 0.177 | 0.179 |
| hlk | 1 | 0.424 | 0.0113 |
| hlk | 2 | -1.01 | -1.03 |
| mtrm | 1 | 2.03 | 7.69 |
| mtrm | 2 | -0.347 | 0.241 |
| CG11382 | 1 | -1.12 | -3.92 |
| Aef1 | 1 | -0.633 | 0.535 |
| Gcat | 1 | 1.05 | 1.11 |
| Adk2 | 1 | 0.345 | -1.08 |
